Data taken from paper doi:10.1101/508549.

Chains of the proteins cited; added tags and fusions are not shown. Lines headed by an entry give the natural chain unless they say otherwise; changes in a name come on top.
UniProt Q07955: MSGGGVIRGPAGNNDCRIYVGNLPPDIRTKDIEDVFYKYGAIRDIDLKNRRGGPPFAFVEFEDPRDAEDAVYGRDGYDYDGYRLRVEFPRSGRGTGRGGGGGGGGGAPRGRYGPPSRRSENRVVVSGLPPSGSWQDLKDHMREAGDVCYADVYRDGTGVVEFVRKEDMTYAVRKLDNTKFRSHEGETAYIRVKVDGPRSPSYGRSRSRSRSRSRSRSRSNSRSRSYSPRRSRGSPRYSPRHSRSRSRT

B1: TRA2a (protein, UniProt Q13595 1-282)
chain: MSDVEENNFEGRESRSQSKSPTGTPARVKSESRSGSRSPSRVSKHSESHSRSRSKSRSRSRRHSHRRYTRSRSHSHSHRRRSRSRSYTPEYRRRRSRSHSPMSNRRRHTGSRANPDPNTCLGVFGLSLYTTERDLREVFSRYGPLSGVNVVYDQRTGRSRGFAFVYFERIDDSKEAMERANGMELDGRRIRVDYSITKRAHTPTPGIYMGRPTHSGGGGGGGGGGGGGGGGRRRDSYYDRGYDRGYDRYEDYDYRYRRRSPSPYYSRYRSRSRSRSYSPRRY
B2: TRA2b (protein, UniProt P62995 1-288)
chain: MSDSGEQNYGERESRSASRSGSAHGSGKSARHTPARSRSKEDSRRSRSKSRSRSESRSRSRRSSRRHYTRSRSRSRSHRRSRSRSYSRDYRRRHSHSHSPMSTRRRHVGNRANPDPNCCLGVFGLSLYTTERDLREVFSKYGPIADVSIVYDQQSRRSRGFAFVYFENVDDAKEAKERANGMELDGRRIRVDFSITKRPHTPTPGIYMGRPTYGSSRRRDYYDRGYDRGYDDRDYYSRSYRGGGGGGGGWRAAQDRDQIYRRRSPSPYYSRGGYRSRSRSRSYSPRRY

Target: SRSF1 mSD-mCherry-NLS-[FLAG]3 (phosphomimetic RS-domain mutant) (human) (UniProt Q07955)
Experiment: affinity purification with mass spectrometry

Binder | binding
B1 | binds
B2 | binds

These are yes or no findings as the source states them, for the method shown. In cells and extracts the contact can be indirect. Here binding means that the protein was enriched with, or labelled near, the bait; the list need not be complete.
